Test results taken from patent US20240300987A1, “TRAP1 INHIBITOR AND USE THEREOF” (SMARTIN BIO INC., priority 2021, published 2024).
For some of these results: At least one compound was matched to its structure with a doubt left. Some results were stated once for a whole list of compounds, not compound by compound.

Assays:
22Rv1 cells = test: In vivo mouse xenograft; set-up: species or system mice; conditions: 3 mg/Kg intraperitoneally daily
Protocol: Immunodeficient athymic nude mice (male, 8 weeks old) were purchased from OrientBio. The mice were maintained in a pathogen-free facility (12-hour dark/light cycle) at the UNIST In Vivo Research Center and supplied with standard diet and water. All animal experiments were approved by UNIST ([…]-19-11). 22Rv1 cells (1×10^7) were injected subcutaneously into both sides of the nude mice. When the tumor size reached approximately 100 mm^3, 3 mg/Kg drugs (MitoQ, SB-U014, and SB-U015) and vehicle (DMSO) dissolved in 20% cremophor EL (Sigma) in PBS were administered intraperitoneally daily. The tumor volume was measured daily using an electronic caliper and calculated using the following equation: V=½× (width) 2× length. When the experiment was completed, animals were euthanized, and the tumor was collected for histology and western blot. Band intensities were quantified using ImageJ software (National Institute of Health, USA). In this case, western blot was performed in the same manner as described above.

TRAP1 [1] = target: T1, TRAP1 (Homo sapiens, UniProt Q12931); test: ATPase activity assay (PiColorLock Gold Phosphate Detection Kit); assay type: biochemical; set-up: hexahistidine tag followed by TEV protease cleavage site (N, cleaved yes); made in house; host or cells: E. coli BL21 (DE3); conditions: result in words
T1 sequence (Q12931 60-704): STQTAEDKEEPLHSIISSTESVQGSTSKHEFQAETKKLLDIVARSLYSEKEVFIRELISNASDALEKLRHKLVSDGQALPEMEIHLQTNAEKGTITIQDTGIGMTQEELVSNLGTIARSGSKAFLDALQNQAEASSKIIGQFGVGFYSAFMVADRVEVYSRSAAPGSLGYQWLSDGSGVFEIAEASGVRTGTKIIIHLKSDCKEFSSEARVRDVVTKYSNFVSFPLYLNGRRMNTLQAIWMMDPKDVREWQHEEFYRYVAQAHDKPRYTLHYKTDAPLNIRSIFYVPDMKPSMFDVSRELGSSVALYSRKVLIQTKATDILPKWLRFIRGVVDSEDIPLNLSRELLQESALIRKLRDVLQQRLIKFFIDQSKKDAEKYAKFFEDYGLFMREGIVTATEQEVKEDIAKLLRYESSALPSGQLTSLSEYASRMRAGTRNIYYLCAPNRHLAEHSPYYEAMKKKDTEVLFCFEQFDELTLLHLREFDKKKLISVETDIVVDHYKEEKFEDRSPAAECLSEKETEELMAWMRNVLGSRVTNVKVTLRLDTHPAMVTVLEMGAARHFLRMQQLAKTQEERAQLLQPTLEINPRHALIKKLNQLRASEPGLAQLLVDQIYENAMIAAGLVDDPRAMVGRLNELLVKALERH
Protocol: The ATPase activity of TRAP1 was measured using the PiColorLock Gold Phosphate Detection Kit (Abcam). Then, 0.5 µM TRAP1 (wild-type or mutation) was pre-incubated along with inhibitors at various concentrations for 30 minutes and then incubated with 0.2 mM ATP at 37° C. for 3 hours in ATPase activity assay buffer containing 50 mM Tris-HCl, 20 mM KCl, and 6 mM MgCl (pH 7.4). Next, 20 µL of a mixture of a PiColorLock Gold reagent and an accelerator (100:1) was added to each sample (100 μL). After 5 minutes of incubation, 10 μL of a stabilizer was added to stop color development. Absorbance was measured at 620 nm using a microplate reader (Synergy NEO, BioTek). The background signal was normalized by subtracting the absorbance of unreacted samples.

[2] = target: T2, human full-length TRAP1 protein (Homo sapiens, UniProt Q12931); test: Fluorescence polarization (FP) analysis using SB-TM2 probe (client-binding site); conditions: Table 2, relative to SMX of the same table
T2 construct: containing human full-length TRAP1 protein (400 nM); hexahistidine tag followed by TEV protease cleavage site (N, cleaved yes); made in house; host or cells: E. coli BL21 (DE3)
T2 sequence (Q12931 60-704): T1 sequence (Q12931 60-704)
Protocol: The substance to be analyzed (at a final volume of 100 μL) was added to FP buffer ([…], 2.7 mM KCl, 4.3 mM Na2HPO4, 1.4 mM KH2PO4 (pH 7.3), 1 mM DTT, 2 mM MgCl2, and 0.1 mg/mL BSA) containing human full-length TRAP1 protein (400 nM) and SB-TM2 probe (100 nM) and then reacted at room temperature for 1 hour (96-well plate). Using a SYNERGY NEO microplate reader, FP was measured at an excitation wavelength set to 440 nm and an emission wavelength set to 500 nm.

TRAP1 [3] = target: T1, TRAP1; test: Protein expression analysis by western blot in 22Rv1 cells, TRAP1 inhibition markers; assay type: cell-based; set-up: endogenous in cells; host or cells: 22Rv1; conditions: 5 µM of each compound, 2 hours
Protocol: Human cancer cell line 22Rv1 was purchased from the American Type Culture Collection (ATCC) and maintained as recommended by the supplier. Briefly, cancer cells were incubated in a DMEM or RPMI medium (GIBCO) containing 10% fetal bovine serum (FBS; ATCC) and 1% penicillin/streptomycin (GIBCO) at 37° C. in a humidified atmosphere of 5% CO2. The cells were not incubated for more than 6 months.
The 22Rv1 cells were treated with 5 µM of each compound, cultured for 2 hours, and then analyzed by western blot.
Cell lysates were separated by SDS-PAGE and transferred to a PVDF membrane. The membrane was blocked with 10% skim milk in TBST (TBS containing 0.05% Tween-20) for 1 hour at room temperature and incubated with primary antibodies overnight at 4° C. The membrane was washed with TBST three times for 1 hour and incubated with secondary antibodies (1:5000) diluted in 10% skim milk in TBST for 1 hour. The membrane was washed with TBST three times and visualized using an enhanced chemiluminescence detection kit (BioRad).

[4] = 22Rv1 xenograft in nude mice, compared to DMSO

## COc1c(C)c(CCCCCCCCCC[P+](c2ccccc2)(c2ccccc2)c2ccccc2)c(OC)c(OC)c1OC [SB-U014, Triphenyl(10-(2,3,4,5-tetramethoxy-6-methylphenyl)decyl)phosphonium]
22Rv1 cells; [4]
  tumor size: the tumor size became smaller
  tumor weight: the tumor weight decreased
22Rv1 cells; 22Rv1 xenograft tumors
  Akt, Cdk4, and Hsp70 in tumors (western blot): without causing changes in Akt, Cdk4, and Hsp70
  SDHB, SIRT3, p-AMPK and CHOP in tumors (western blot): decreases in SDHB and SIRT3, activated AMPK (p-AMPK), and induced the mitochondrial unfolded protein response (CHOP)
TRAP1 [1]
  TRAP1 ATPase activity with increasing concentration: did not show a tendency that the ATPase activity decreased in a concentration-dependent manner

## CC1=C(C)C(=O)C(CCCCCCCCCC[P+](c2ccccc2)(c2ccccc2)c2ccccc2)=CC1=O [SkQ1, (10-(4,5-Dimethyl-3,6-dioxocyclohexa-1,4-diene-1-yl)decyl)triphenylphosphonium, reference compound]
[2]
  Activity compared to that of SMX: 1.18

## CCCCCCCCCC[P+](c1ccccc1)(c1ccccc1)c1ccccc1 [TPP-10, Decyltriphenylphosphonium]
TRAP1 [3]
  SDHB and SIRT3 expression (TRAP1 inhibition): reducing SDHB and SIRT3

## CCCCCCCCCCCC[P+](c1ccccc1)(c1ccccc1)c1ccccc1 [TPP-12, Dodecyltriphenylphosphonium]
TRAP1 [3]
  SDHB and SIRT3 expression (TRAP1 inhibition): reducing SDHB and SIRT3

## CCCCCCCCCCCCCC[P+](c1ccccc1)(c1ccccc1)c1ccccc1 [TPP-14, Tetradecyltriphenylphosphonium]
TRAP1 [3]
  SDHB and SIRT3 expression (TRAP1 inhibition): reducing SDHB and SIRT3

## CCCCCCCCCCCCCCCC[P+](c1ccccc1)(c1ccccc1)c1ccccc1 [TPP-16, Hexadecyltriphenylphosphonium]
TRAP1 [3]
  SDHB and SIRT3 expression (TRAP1 inhibition): reducing SDHB and SIRT3
